Assay results reported in publication PMC12603114.
These are yes or no findings as the source states them, for the method shown. Binding seen in cells or lysates may run through a third protein. Some binding calls cover weakened binding; strength is not graded here.

Target: T1, Signal transducer and activator of transcription 1 (STAT1), from plasmid, P42224
T1 chain: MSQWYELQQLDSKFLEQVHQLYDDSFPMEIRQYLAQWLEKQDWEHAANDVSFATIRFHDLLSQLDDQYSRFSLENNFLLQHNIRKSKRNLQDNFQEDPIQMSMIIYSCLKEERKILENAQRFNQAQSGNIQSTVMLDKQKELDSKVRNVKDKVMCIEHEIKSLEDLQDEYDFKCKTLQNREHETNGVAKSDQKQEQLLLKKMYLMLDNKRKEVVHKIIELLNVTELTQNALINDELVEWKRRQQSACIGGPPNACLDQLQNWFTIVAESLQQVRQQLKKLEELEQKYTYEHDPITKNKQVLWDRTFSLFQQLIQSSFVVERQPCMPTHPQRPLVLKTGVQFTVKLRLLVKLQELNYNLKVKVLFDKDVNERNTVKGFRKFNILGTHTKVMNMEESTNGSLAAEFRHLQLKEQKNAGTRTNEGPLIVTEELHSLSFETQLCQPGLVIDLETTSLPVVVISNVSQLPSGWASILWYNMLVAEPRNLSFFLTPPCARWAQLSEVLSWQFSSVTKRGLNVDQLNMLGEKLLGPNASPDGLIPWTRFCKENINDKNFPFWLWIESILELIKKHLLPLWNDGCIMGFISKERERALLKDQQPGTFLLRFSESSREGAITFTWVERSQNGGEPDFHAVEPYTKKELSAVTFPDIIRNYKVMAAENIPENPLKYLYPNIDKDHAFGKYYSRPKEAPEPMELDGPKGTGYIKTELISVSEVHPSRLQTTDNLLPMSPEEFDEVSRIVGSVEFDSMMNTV
Experiment: co-IP; HEK293T cells transfected with the indicated plasmids, treated with IFNγ (100 ng/mL) or IFNβ (100 ng/mL); precipitated with S-tag beads at 4 °C; with or without co-expressed PTIR1
Settings: remark: other sources report otherwise

- binding: binds
B1: Signal transducer and activator of transcription 1 (STAT1), from plasmid, P42224 1-750 (protein)
chain: T1 chain
